In PubChem BioAssay AID1259415 (National Center for Advancing Translational Sciences (NCATS), 2018):
Screen size: about 410,000 compounds; about 18,000 (4.4%) were called active. The inconclusive results got no clear call from the source; some entries with a clear call stand among them for comparison. Rule as the data show it: active = activity change below about -60%; inconclusive = no clear call, values can overlap the other calls; inactive = above about -39%.

Assay: qHTS Assay for inhibitors of the human cytomegalovirus (HCMV)
Conditions: HFF cells, HCMV-luciferase reporter, 72 h; at 57.5 µM; hits give low values
In short: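 Two compound doses tested in HFFs infected with HCMV-luciferase, MOI 1 PFU/cell, 72 h at 37C. Lysate luminescence read with OneGlo; data normalized against buffer-only and 10uM Salinomycin inhibitor controls.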
% is scaled to controls: 0 for no effect and ±100 for the full control effect.

SMILES	activity change, negative = inhibition
CN(Cc1nc(-c2ccncc2)no1)S(=O)(=O)c1ccccc1	inconclusive: -44.4%
CN1CCN(c2ccc(S(=O)(=O)N3CCCCC3)cc2NC(=O)/C=C/c2ccc(Cl)c([N+](=O)[O-])c2)CC1	active: -79.8%
CC(C)OC(=O)COc1cc(O)c2c(=O)cc(-c3ccccc3)oc2c1	inconclusive: -43.3%
COc1cccc(NS(=O)(=O)NC(=O)c2c(C)[nH]c3ccccc23)c1	inactive: -27%
COc1ccc(/C(N)=N/OC(=O)C2CCC(=O)N2S(=O)(=O)c2ccc(C)cc2)cc1OC (configuration not stated)	active: -87.4%
CN(C)C(=O)COc1ccc(Br)cc1	inconclusive: -43.5%
Cc1nc2ccccc2c2c1CC(C)S2 (configuration not stated)	inconclusive: -48.3%
COc1ccc(CN(C)Cc2c(O)ccc3cc(Br)ccc23)cc1OC	active: -65.8%
CCOc1ccc(C2C(=O)N(C3CCCCC3)CC(=O)N2CCC2=CCCCC2)cc1OC (configuration not stated)	inconclusive: -53.7%
CCOc1ccc(Nc2oc(-c3cccs3)nc2C#N)cc1	inconclusive: -51.1%
COc1ccc(CC(=O)O/N=C(\N)c2cccc([N+](=O)[O-])c2)cc1	inconclusive: -47.4%
Cc1ccc2c(c1)cc(CN(C(=O)N1CCOCC1)C1CCCC1)c1nnnn12	inconclusive: -54.4%
CCOC(=O)c1c(C)n(C)c2cc(Br)c(O)c(O)c12	inactive: -31.5%
Cc1ccc(S(=O)(=O)N(CC(=O)NCc2ccccn2)c2ccc(Cl)cc2)cc1	inconclusive: -49.3%
O=C1CC(N2CCN(Cc3ccc4c(c3)OCO4)CC2)C(=O)N1c1cccc2ccccc12 (configuration not stated)	inactive: -13.3%
CCC(C)Sc1cccc(-c2nc3ccc(C)cn3c2NC2CCCCC2)c1 (configuration not stated)	inconclusive: -46%
CCN1CCN(C(=O)CS(=O)(=O)Cc2nc(-c3ccccc3C)oc2C)CC1	inconclusive: -46%
CC(C)Nc1nc(NC(C)C)nc(SCC(N)=O)n1	inactive: -27%
c1ccc2c(c1)Sc1ccccc1N2CC1CN2CCC1CC2 (configuration not stated)	active: -60.4%
Cn1c2ccc(F)cc2c2ncn(Cc3ccccn3)c(=O)c21	inconclusive: -42.5%
CCN(Cc1ccccc1)Cc1c(O)ccc2oc(C)c(C(=O)Nc3ccccc3C)c12	inconclusive: -55.6%

SMILES	activity change, negative = inhibition
C[C@@H]1CN([C@H](C)CO)C(=O)c2cc(NC(=O)Nc3ccc4c(c3)OCO4)ccc2O[C@H]1CN(C)Cc1ccncc1	inactive: -12.9%
CN(c1nc2ccccc2[nH]c1=O)C1CCCCC1	inconclusive: -44.9%
C[C@@H]1CCCCO[C@@H](CN(C)S(=O)(=O)c2ccc(Cl)cc2)[C@@H](C)CN([C@H](C)CO)C(=O)c2cc(N(C)C)ccc2O1	inactive: 22.4%
CCCCSCCCNC(=O)c1c[nH]c2ccc(S(=O)(=O)Nc3cccc(OC)c3)cc2c1=O	inconclusive: -45.1%
COc1ccc(NC(=O)C2(C)CCN2C(=O)c2ccc(C(C)(C)C)cc2)cc1OC (configuration not stated)	inconclusive: -44.1%
Cc1cc(C)cc(NC(=S)NCCSc2ccc(Cl)cc2)c1	inconclusive: -47%
O=c1cc(-c2ccccc2)n2c(SCc3ccc(Br)cc3)nnc2[nH]1	inactive: -24.6%
CC(C)C[C@H]1CNC(=S)N1C[C@H]1CCCN1C[C@H](Cc1ccc(O)cc1)N1C[C@H](CC(C)C)N(CC2CCCCCC2)C1=S	inconclusive: -57.3%
CC(C)c1nc(CNC(=O)c2ccc(OC3CCN(Cc4ccccn4)CC3)cc2)cs1	inconclusive: -40.3%
Cc1cc(C(C)(C)C)cc(C)c1CCNC(=O)c1c(C)noc1C	inconclusive: -51.1%
CC1=CC(C)(C)Nc2ccc(OC(=O)CN3C(=O)CCC3=O)cc21	active: -94.1%
Cc1ccccc1N(CC(=O)NCCSCc1ccco1)S(C)(=O)=O	inactive: -15.3%
O=C(Cn1cc2c(n1)CCCCC2)NC1CCN(Cc2ccccc2)CC1	inactive: -33.3%
CCc1ccc(S(=O)(=O)NCc2ccc(C(=O)NCCN(Cc3ccccc3)C(C)C)cc2)cc1	inconclusive: -58.2%
Cn1c(SCC(=O)Nc2ccc3c(c2)OCCO3)nnc1-c1ccco1	inactive: 3.07%
CC(CC(=O)NCc1ccc(Cl)cc1)S(=O)(=O)c1ccc2c(c1)NC(=O)CO2 (configuration not stated)	inconclusive: -41.7%
CC1=C(C(=O)Nc2ccccc2)C(c2ccc(C)o2)n2c(s/c(=C/c3ccccc3)c2=O)=N1 (configuration not stated)	inconclusive: -47.4%
CC(C)=CCC/C(C)=C/CNC(=O)C[C@H]1C[C@H](C(=O)N2CCOCC2)[C@@]2(CCC3CCCC3)c3[nH]c4cc(CCC(=O)N(C)C)ccc4c3CCN2C1=O	active: -108%
NS(=O)(=O)c1ccc(NCc2ccccc2OCc2ccccc2F)cc1	inconclusive: -55.3%
CC1CCCC/C1=N\NC(=S)Nc1ccccc1 (configuration not stated)	inconclusive: -48.9%
Cc1ccc(NC(=O)Cn2cc(C(=O)c3ccco3)c3ccccc32)cc1	inconclusive: -53.8%

Structural class: those above containing a Cl atom.
SMILES	activity change, negative = inhibition
CN1CCN(c2ccc(S(=O)(=O)N3CCCCC3)cc2NC(=O)/C=C/c2ccc(Cl)c([N+](=O)[O-])c2)CC1	active: -79.8%
Cc1ccc(S(=O)(=O)N(CC(=O)NCc2ccccn2)c2ccc(Cl)cc2)cc1	inconclusive: -49.3%
C[C@@H]1CCCCO[C@@H](CN(C)S(=O)(=O)c2ccc(Cl)cc2)[C@@H](C)CN([C@H](C)CO)C(=O)c2cc(N(C)C)ccc2O1	inactive: 22.4%
Cc1cc(C)cc(NC(=S)NCCSc2ccc(Cl)cc2)c1	inconclusive: -47%
CC(CC(=O)NCc1ccc(Cl)cc1)S(=O)(=O)c1ccc2c(c1)NC(=O)CO2 (configuration not stated)	inconclusive: -41.7%
